Source: the supplement of paper PMC10849652
The list shows a part of the results.

The chains behind the UniProt entries cited, without tags or fusion partners. Where a name states a change or a piece, a line headed by the entry shows the natural chain unless it says otherwise.
UniProt P21980: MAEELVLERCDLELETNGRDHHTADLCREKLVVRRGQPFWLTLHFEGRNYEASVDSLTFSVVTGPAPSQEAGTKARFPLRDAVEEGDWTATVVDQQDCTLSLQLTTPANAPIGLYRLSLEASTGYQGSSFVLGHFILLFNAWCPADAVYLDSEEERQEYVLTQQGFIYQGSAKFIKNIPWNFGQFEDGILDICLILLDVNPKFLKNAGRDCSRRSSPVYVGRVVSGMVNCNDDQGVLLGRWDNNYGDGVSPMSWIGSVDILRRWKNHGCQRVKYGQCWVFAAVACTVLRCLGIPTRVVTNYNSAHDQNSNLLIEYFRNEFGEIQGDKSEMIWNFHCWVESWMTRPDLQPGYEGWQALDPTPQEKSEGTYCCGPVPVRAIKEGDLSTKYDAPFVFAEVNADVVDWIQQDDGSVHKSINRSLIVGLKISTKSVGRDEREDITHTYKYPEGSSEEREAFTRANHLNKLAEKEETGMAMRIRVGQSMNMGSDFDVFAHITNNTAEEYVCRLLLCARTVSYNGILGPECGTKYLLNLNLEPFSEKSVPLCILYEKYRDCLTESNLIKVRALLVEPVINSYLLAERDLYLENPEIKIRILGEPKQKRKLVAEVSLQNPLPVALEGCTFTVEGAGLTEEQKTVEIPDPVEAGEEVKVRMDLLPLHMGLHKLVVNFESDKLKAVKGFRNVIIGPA
UniProt Q96MV1: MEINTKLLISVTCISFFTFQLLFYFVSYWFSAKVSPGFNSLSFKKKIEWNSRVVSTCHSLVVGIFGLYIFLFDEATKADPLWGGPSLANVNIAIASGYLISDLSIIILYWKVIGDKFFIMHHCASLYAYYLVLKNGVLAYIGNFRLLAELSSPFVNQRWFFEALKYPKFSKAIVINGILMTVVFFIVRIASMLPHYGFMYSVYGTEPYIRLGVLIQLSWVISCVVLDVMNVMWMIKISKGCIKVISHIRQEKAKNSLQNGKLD
UniProt Q9NUM4, whole entry, looked up: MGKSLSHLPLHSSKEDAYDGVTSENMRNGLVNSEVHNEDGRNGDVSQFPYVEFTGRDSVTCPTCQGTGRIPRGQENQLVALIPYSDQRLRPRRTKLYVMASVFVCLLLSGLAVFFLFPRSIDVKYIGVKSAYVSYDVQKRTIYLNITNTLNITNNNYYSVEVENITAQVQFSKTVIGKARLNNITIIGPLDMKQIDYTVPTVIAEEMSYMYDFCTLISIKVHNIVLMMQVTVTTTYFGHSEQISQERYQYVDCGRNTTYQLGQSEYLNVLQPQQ
UniProt Q9NX00: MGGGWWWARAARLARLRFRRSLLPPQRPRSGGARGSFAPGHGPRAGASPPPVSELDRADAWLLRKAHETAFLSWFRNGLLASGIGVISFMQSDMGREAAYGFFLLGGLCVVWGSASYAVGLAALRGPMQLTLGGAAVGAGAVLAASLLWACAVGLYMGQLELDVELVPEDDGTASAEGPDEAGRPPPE
UniProt Q86W42: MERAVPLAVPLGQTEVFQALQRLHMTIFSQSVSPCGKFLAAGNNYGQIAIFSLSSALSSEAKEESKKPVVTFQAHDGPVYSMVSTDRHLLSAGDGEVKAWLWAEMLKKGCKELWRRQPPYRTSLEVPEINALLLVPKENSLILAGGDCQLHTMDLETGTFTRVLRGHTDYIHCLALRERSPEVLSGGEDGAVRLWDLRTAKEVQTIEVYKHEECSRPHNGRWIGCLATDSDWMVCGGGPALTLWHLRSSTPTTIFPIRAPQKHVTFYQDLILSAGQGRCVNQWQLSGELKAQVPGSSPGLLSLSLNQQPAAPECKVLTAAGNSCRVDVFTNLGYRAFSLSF
UniProt Q12893: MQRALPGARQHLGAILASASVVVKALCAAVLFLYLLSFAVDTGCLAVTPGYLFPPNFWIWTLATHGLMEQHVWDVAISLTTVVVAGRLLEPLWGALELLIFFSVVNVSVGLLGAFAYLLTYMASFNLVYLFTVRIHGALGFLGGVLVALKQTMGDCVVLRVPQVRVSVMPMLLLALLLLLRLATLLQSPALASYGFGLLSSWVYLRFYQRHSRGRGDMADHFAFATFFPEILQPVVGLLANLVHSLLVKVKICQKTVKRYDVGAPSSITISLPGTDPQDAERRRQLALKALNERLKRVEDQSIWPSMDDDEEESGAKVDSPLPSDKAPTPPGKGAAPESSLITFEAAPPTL
UniProt Q9BU02: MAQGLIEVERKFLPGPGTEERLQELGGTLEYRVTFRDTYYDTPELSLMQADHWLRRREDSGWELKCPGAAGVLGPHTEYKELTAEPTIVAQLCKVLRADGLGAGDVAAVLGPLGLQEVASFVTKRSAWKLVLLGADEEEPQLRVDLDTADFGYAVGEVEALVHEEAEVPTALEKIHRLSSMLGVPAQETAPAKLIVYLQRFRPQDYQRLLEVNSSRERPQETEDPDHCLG
UniProt Q9BVW5: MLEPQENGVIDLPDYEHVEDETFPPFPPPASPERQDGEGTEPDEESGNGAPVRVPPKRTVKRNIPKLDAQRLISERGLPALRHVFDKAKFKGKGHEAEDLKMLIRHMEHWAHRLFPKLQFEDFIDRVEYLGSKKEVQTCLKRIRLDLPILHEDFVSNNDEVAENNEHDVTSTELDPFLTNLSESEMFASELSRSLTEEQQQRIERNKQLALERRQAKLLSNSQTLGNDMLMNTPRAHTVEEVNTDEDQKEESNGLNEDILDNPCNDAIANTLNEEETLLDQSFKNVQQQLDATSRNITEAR
UniProt Q9Y2W1: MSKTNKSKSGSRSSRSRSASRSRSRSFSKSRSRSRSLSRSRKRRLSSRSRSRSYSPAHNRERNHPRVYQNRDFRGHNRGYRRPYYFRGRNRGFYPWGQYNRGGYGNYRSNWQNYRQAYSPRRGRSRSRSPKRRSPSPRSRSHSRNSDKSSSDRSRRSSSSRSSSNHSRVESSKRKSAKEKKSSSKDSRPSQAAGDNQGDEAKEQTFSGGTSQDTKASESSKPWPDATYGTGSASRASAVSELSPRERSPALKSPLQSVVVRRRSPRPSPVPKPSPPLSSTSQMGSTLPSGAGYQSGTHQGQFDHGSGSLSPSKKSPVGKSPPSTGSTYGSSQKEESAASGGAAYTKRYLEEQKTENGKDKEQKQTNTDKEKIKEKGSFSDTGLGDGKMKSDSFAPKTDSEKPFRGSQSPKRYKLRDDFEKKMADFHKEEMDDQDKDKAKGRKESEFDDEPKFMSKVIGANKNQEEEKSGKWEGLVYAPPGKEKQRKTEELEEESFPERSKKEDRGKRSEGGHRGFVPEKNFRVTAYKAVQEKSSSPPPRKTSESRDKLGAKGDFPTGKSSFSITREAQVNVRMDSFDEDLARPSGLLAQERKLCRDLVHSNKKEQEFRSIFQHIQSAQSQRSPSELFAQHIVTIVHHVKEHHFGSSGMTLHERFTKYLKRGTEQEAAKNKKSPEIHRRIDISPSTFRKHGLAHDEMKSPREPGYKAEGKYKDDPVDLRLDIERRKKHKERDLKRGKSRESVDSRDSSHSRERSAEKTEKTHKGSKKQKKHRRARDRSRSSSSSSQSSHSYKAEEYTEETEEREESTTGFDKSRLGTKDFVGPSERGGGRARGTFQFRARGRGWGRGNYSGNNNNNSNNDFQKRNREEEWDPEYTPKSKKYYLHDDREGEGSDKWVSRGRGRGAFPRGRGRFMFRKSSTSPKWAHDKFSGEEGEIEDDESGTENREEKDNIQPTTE
UniProt Q86UE8, whole entry, looked up: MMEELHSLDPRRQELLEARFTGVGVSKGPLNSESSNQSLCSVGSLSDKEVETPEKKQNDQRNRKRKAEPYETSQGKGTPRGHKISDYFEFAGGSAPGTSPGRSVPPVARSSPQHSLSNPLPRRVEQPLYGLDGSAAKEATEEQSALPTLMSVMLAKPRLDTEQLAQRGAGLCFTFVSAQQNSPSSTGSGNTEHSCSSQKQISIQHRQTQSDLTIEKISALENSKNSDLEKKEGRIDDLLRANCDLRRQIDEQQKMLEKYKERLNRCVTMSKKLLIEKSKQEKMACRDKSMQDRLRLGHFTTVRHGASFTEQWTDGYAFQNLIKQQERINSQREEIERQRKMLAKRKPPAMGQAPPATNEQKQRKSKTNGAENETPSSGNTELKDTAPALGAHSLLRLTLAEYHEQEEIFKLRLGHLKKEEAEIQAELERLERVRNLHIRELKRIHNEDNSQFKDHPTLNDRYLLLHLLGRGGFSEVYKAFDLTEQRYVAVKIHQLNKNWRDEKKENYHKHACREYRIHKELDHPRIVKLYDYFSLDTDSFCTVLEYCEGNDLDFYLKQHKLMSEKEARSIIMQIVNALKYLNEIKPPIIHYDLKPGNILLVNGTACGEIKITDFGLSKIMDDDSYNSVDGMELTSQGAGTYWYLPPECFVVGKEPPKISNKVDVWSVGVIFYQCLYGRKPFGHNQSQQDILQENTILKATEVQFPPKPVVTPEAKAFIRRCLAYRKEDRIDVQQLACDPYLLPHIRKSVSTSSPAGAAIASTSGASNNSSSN
UniProt Q04726: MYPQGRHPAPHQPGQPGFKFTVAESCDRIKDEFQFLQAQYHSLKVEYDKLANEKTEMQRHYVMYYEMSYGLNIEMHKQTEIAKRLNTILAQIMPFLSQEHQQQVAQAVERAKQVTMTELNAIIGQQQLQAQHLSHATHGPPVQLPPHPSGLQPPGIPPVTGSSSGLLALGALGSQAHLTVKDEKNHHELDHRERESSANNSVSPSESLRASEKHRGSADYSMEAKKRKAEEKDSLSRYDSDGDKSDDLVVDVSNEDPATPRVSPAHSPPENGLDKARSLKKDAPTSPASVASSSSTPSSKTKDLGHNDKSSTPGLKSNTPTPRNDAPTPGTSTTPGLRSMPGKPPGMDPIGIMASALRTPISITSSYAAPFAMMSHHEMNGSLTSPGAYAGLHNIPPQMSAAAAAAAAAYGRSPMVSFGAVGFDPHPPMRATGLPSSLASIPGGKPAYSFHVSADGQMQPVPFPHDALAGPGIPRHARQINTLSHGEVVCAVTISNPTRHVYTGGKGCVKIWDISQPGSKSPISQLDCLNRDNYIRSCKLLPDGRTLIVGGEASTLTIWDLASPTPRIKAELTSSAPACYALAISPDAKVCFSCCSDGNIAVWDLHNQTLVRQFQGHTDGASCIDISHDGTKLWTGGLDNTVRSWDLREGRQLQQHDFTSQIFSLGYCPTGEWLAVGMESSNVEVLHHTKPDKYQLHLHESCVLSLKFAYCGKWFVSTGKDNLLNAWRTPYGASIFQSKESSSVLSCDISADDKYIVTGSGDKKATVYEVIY
UniProt Q9NR96: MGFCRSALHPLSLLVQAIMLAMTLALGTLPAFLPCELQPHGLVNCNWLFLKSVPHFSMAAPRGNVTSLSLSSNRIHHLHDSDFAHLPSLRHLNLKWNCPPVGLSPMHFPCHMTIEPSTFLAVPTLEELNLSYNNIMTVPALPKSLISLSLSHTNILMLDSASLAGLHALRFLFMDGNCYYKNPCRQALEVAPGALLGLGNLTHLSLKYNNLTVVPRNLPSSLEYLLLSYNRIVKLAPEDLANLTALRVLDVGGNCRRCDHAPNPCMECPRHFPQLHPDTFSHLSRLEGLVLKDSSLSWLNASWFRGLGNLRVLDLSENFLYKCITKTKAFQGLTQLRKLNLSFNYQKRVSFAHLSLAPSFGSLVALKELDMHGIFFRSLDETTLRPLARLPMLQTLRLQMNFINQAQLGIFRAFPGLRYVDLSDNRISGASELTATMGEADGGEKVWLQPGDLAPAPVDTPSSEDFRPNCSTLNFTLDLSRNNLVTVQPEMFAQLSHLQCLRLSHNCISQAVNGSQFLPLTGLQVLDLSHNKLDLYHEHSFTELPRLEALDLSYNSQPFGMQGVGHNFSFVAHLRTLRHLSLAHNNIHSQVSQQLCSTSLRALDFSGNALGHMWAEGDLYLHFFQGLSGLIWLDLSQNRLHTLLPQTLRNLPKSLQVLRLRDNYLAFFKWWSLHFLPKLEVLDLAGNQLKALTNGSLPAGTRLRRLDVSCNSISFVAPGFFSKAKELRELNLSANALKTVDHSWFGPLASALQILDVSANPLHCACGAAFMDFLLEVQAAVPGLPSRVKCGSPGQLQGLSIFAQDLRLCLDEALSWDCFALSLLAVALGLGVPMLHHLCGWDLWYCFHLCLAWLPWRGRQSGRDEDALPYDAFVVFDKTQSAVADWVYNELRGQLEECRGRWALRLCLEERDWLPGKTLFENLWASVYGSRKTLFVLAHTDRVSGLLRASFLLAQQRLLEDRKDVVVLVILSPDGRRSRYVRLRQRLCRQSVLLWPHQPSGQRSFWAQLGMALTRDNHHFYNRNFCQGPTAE
UniProt Q9NXG2: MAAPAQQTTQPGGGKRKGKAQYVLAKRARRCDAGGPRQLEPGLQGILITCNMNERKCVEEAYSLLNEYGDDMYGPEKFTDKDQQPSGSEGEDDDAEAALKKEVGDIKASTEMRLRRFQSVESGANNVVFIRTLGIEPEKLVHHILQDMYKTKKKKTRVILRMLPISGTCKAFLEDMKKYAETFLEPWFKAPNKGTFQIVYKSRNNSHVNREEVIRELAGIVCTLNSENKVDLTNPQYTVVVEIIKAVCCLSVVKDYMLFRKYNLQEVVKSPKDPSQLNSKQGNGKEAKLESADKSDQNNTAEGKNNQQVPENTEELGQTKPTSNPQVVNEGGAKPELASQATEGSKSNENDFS

Assays:
Assay in all cases: log2 fold change, soluble protein after heating vs DMSO (PISA); higher = thermal stabilisation; K562 lysate, 10 uM; active = over 0.2 and 3.5 SD of the protein, either way, in both replicates (recomputed)
alvocidib = compound: CN1CC[C@H](c2c(O)cc(O)c3c(=O)cc(-c4ccccc4Cl)oc23)[C@H](O)C1 [alvocidib]
Outline: (§1)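 The values are log-two fold changes in thermal stability compared with solvent controls and come from duplicates. They were obtained by TMTpro 16plex LC-MS/MS, with channel sums equalised, on the supernatant after 21,000xg for 90 min. That supernatant came from crude K562 extract at 1 mg/mL protein treated with 10 μM compound for 30 min, heated for 3 min across 48°C-58°C, pooled and brought to 0.5% NP-40 at 4°C.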

Tubastatin A = compound: CN1CCc2c(c3ccccc3n2Cc2ccc(C(=O)NO)cc2)C1 [Tubastatin A]
Outline: as §1

[1] = compound: CNC(=O)C1=CC=CC=C1NC2=NC(=NC=C2Cl)NC3=C(C=C(C=C3)N4CCOCC4)OC
Outline: as §1

defactinib = compound: CNC(=O)c1ccc(Nc2ncc(C(F)(F)F)c(NCc3nccnc3N(C)S(C)(=O)=O)n2)cc1 [defactinib]
Outline: as §1

[2] = compound: CNc1nc(-c2ccc3c(N)n[nH]c3c2)cc(N2C[C@@H](C(=O)NC3CCCCC3)CC[C@H]2C)n1
Outline: as §1

encorafenib = compound: COC(=O)N[C@@H](C)CNc1nccc(-c2cn(C(C)C)nc2-c2cc(Cl)cc(NS(C)(=O)=O)c2F)n1 [encorafenib]
Outline: as §1

[3] = compound: COC(=O)[C@H](CCSC)NC(=O)C1=C(C=C(C=C1)NC[C@H](CS)N)C2=CC=CC=C2
Outline: as §1

alisertib = compound: COc1cc(Nc2ncc3c(n2)-c2ccc(Cl)cc2C(c2c(F)cccc2OC)=NC3)ccc1C(=O)O [alisertib]
Outline: as §1

[4] = compound: COc1cc2nc(-c3cc(F)ccc3O)nc(N[C@@H]3CNC[C@H]3C(C)(C)O)c2cc1OC
Outline: as §1

gefitinib = compound: COc1cc2ncnc(Nc3ccc(F)c(Cl)c3)c2cc1OCCCN1CCOCC1 [gefitinib]
Outline: as §1

lapatinib = compound: CS(=O)(=O)CCNCc1ccc(-c2ccc3ncnc(Nc4ccc(OCc5cccc(F)c5)c(Cl)c4)c3c2)o1 [lapatinib]
Outline: as §1

pictilisib = compound: CS(=O)(=O)N1CCN(Cc2cc3nc(-c4cccc5[nH]ncc45)nc(N4CCOCC4)c3s2)CC1 [pictilisib]
Outline: as §1

crizotinib = compound: C[C@@H](Oc1cc(-c2cnn(C3CCNCC3)c2)cnc1N)c1c(Cl)ccc(F)c1Cl [crizotinib]
Outline: as §1

[5] = compound: C[C@H](C1=CC=C(C=C1)C(=O)NC2=C3C=CNC3=NC=C2)N
Outline: as §1

duvelisib = compound: C[C@H](Nc1ncnc2nc[nH]c12)c1cc2cccc(Cl)c2c(=O)n1-c1ccccc1 [duvelisib]
Outline: as §1

gandotinib = compound: Cc1cc(Nc2cc(CN3CCOCC3)c3nc(C)c(Cc4ccc(Cl)cc4F)n3n2)n[nH]1 [gandotinib]
Outline: as §1

tozasertib = compound: Cc1cc(Nc2cc(N3CCN(C)CC3)nc(Sc3ccc(NC(=O)C4CC4)cc3)n2)n[nH]1 [tozasertib]
Outline: as §1

doramapimod = compound: Cc1ccc(-n2nc(C(C)(C)C)cc2NC(=O)Nc2ccc(OCCN3CCOCC3)c3ccccc23)cc1 [doramapimod]
Outline: as §1

bafetinib = compound: Cc1ccc(NC(=O)c2ccc(CN3CC[C@H](N(C)C)C3)c(C(F)(F)F)c2)cc1Nc1nccc(-c2cncnc2)n1 [bafetinib]
Outline: as §1

[6] = compound: Cc1cccc(CC(=O)N2CCc3c2ccc(-c2cn(C)c4ncnc(N)c24)c3F)n1
Outline: as §1

Measured: log2 fold change

TGM2 (UniProt P21980)
inactive: alvocidib 0.001 | Tubastatin A -0.032 | [1] -0.007 | defactinib -0.008 | [2] -0.035 | encorafenib -0.017 | [3] 0.074 | alisertib -0.008 | [4] 0.002 | gefitinib -0.014 | lapatinib -0.005 | pictilisib 0.005 | crizotinib -0.044 | [5] -0.008 | duvelisib 0.001 | gandotinib -0.021 | tozasertib -0.004 | doramapimod -0.007 | bafetinib -0.021 | [6] 0.02

TLCD4 (UniProt Q96MV1)
inactive: alvocidib -0.097 | Tubastatin A -0.041 | [1] -0.108 | defactinib 0.075 | [2] -0.171 | encorafenib 0.035 | [3] -0.045 | alisertib -0.027 | [4] -0.006 | gefitinib -0.012 | lapatinib -0.001 | pictilisib -0.025 | crizotinib 0.113 | [5] -0.173 | duvelisib 0.045 | gandotinib 0.089 | tozasertib -0.064 | doramapimod -0.097 | bafetinib -0.039 | [6] 0.09

TMEM106B (UniProt Q9NUM4)
inactive: alvocidib -0.064 | Tubastatin A 0.012 | [1] 0.052 | defactinib 0.028 | [2] -0.105 | encorafenib 0.014 | [3] -0.043 | alisertib -0.043 | [4] 0.004 | gefitinib -0.046 | lapatinib 0.049 | pictilisib -0.025 | crizotinib 0.006 | [5] -0.029 | duvelisib 0.059 | gandotinib -0.011 | tozasertib 0.018 | doramapimod 0.025 | bafetinib -0.008 | [6] 0.015

TMEM160 (UniProt Q9NX00)
inactive: alvocidib -0.05 | Tubastatin A 0.078 | [1] -0.065 | defactinib 0.106 | [2] -0.05 | encorafenib 0.095 | [3] -0.047 | alisertib 0.102 | [4] -0.007 | gefitinib 0.023 | lapatinib 0.024 | pictilisib 0.052 | crizotinib 0.087 | [5] -0.074 | duvelisib -0.036 | gandotinib 0.066 | tozasertib 0.091 | doramapimod -0.096 | bafetinib -0.034 | [6] 0.033

THOC6 (UniProt Q86W42)
inactive: alvocidib -0.02 | Tubastatin A 0.013 | [1] -0.013 | defactinib -0.041 | [2] 0.017 | encorafenib -0.027 | [3] 0.161 | alisertib 0.013 | [4] 0.01 | gefitinib 0.01 | lapatinib -0.021 | pictilisib -0.034 | crizotinib -0.008 | [5] -0.022 | duvelisib 0.025 | gandotinib 0.029 | tozasertib -0.03 | doramapimod 0.025 | bafetinib 0.013 | [6] 0.028

TMEM115 (UniProt Q12893)
inactive: alvocidib -0.018 | Tubastatin A 0.036 | [1] -0.045 | defactinib -0.048 | [2] 0.128 | encorafenib 0.027 | [3] 0.04 | alisertib 0.058 | [4] 0.003 | gefitinib -0.075 | lapatinib -0.062 | pictilisib -0.046 | crizotinib -0.034 | [5] -0.025 | duvelisib 0.058 | gandotinib 0.036 | tozasertib -0.005 | doramapimod 0.073 | bafetinib -0.058 | [6] -0.028

THTPA (UniProt Q9BU02)
inactive: alvocidib 0.011 | Tubastatin A 0.009 | [1] -0.008 | defactinib 0.018 | [2] 0.04 | encorafenib 0.062 | [3] -0.002 | alisertib -0.208 | [4] -0.078 | gefitinib 0.009 | lapatinib -0.099 | pictilisib 0.062 | crizotinib 0.039 | [5] 0.033 | duvelisib 0.055 | gandotinib -0.122 | tozasertib 0.009 | doramapimod -0.005 | bafetinib 0.047 | [6] -0.053

TIPIN (UniProt Q9BVW5)
inactive: alvocidib -0.057 | Tubastatin A -0.039 | [1] 0.019 | defactinib -0.028 | [2] -0.086 | encorafenib 0.032 | [3] -0.039 | alisertib 0.029 | [4] -0.045 | gefitinib 0.003 | lapatinib 0.027 | pictilisib -0.002 | crizotinib 0.042 | [5] -0.104 | duvelisib 0.012 | gandotinib 0.062 | tozasertib 0.034 | doramapimod -0.029 | bafetinib -0.053 | [6] 0.065

TJAP1 (UniProt Q5JTD0)
inactive: alvocidib -0.09 | Tubastatin A 0.036 | [1] -0.014 | defactinib -0.017 | [2] 0.008 | encorafenib -0.016 | [3] -0.143 | alisertib -0.047 | [4] -0.005 | gefitinib 0.035 | lapatinib -0.009 | pictilisib -0.059 | crizotinib 0.065 | [5] -0.092 | duvelisib 0.069 | gandotinib 0.09 | tozasertib -0.007 | doramapimod 0.014 | bafetinib -0.004 | [6] 0.122

THRAP3 (UniProt Q9Y2W1)
inactive: alvocidib -0.037 | Tubastatin A 0.001 | [1] 0.002 | defactinib -0.022 | [2] 0.052 | encorafenib 0.033 | [3] -0.048 | alisertib 0.004 | [4] -0.019 | gefitinib -0.009 | lapatinib -0.003 | pictilisib -0.008 | crizotinib 0.048 | [5] -0.139 | duvelisib 0.038 | gandotinib 0.016 | tozasertib 0.023 | doramapimod 0.007 | bafetinib -0.033 | [6] 0.078

Quoted from above (two entries):
TLCD4 (UniProt Q96MV1)
inactive: alvocidib -0.097 | Tubastatin A -0.041 | [1] -0.108 | defactinib 0.075 | [2] -0.171 | encorafenib 0.035 | [3] -0.045 | alisertib -0.027 | [4] -0.006 | gefitinib -0.012 | lapatinib -0.001 | pictilisib -0.025 | crizotinib 0.113 | [5] -0.173 | duvelisib 0.045 | gandotinib 0.089 | tozasertib -0.064 | doramapimod -0.097 | bafetinib -0.039 | [6] 0.09

TMEM106B (UniProt Q9NUM4)
inactive: alvocidib -0.064 | Tubastatin A 0.012 | [1] 0.052 | defactinib 0.028 | [2] -0.105 | encorafenib 0.014 | [3] -0.043 | alisertib -0.043 | [4] 0.004 | gefitinib -0.046 | lapatinib 0.049 | pictilisib -0.025 | crizotinib 0.006 | [5] -0.029 | duvelisib 0.059 | gandotinib -0.011 | tozasertib 0.018 | doramapimod 0.025 | bafetinib -0.008 | [6] 0.015

(further entries)

TLK2 isoform 2 (UniProt Q86UE8)
inactive: alvocidib -0.027 | Tubastatin A -0.07 | [1] -0.03 | defactinib 0.117 | [2] -0.071 | encorafenib 0.046 | [3] -0.063 | alisertib -0.01 | [4] 0.041 | gefitinib -0.004 | lapatinib -0.041 | pictilisib 0.112 | crizotinib -0.029 | [5] -0.115 | duvelisib -0.042 | tozasertib 0.126 | doramapimod 0.006 | bafetinib 0.004 | [6] 0.049
active: gandotinib 0.351

TLE3 isoform 4 (UniProt Q04726)
inactive: alvocidib 0.023 | Tubastatin A 0.002 | [1] -0.013 | defactinib 0.004 | [2] 0.024 | encorafenib 0.014 | [3] -0.019 | alisertib -0.016 | [4] 0.002 | gefitinib -0.037 | lapatinib -0.01 | pictilisib 0.008 | crizotinib 0.003 | [5] 0.004 | duvelisib -0.015 | gandotinib 0 | tozasertib -0.029 | doramapimod -0.016 | bafetinib 0.1 | [6] -0.048

TIMM10 (UniProt P62072)
inactive: alvocidib 0.028 | Tubastatin A 0.067 | [1] 0.05 | defactinib 0.047 | [2] -0.054 | encorafenib 0.109 | [3] -0.135 | alisertib 0.036 | [4] -0.028 | gefitinib 0.005 | lapatinib 0.031 | pictilisib 0.04 | crizotinib 0.015 | [5] -0.039 | duvelisib -0.019 | gandotinib 0.019 | tozasertib 0.064 | doramapimod -0.009 | bafetinib -0.036 | [6] 0.012

TGFBR3 (UniProt Q03167)
inactive: alvocidib -0.039 | Tubastatin A 0.035 | [1] 0.034 | defactinib -0.03 | [2] 0.002 | encorafenib 0.007 | [3] -0.035 | alisertib 0.004 | [4] 0.022 | gefitinib 0.05 | lapatinib -0.027 | pictilisib -0.043 | crizotinib -0.064 | [5] -0.055 | duvelisib 0.053 | gandotinib 0.02 | tozasertib -0.048 | doramapimod 0.047 | bafetinib -0.049 | [6] 0.064

TLR9 isoform 4 (UniProt Q9NR96)
inactive: alvocidib -0.015 | Tubastatin A 0.037 | [1] 0.012 | defactinib 0 | [2] -0.119 | encorafenib 0.079 | [3] -0.063 | alisertib 0.067 | [4] 0.009 | gefitinib -0.027 | lapatinib 0.02 | pictilisib 0.086 | crizotinib 0.043 | [5] -0.004 | duvelisib 0.037 | gandotinib -0.038 | tozasertib -0.014 | doramapimod -0.019 | bafetinib -0.042 | [6] -0.092

THUMPD1 (UniProt Q9NXG2)
inactive: alvocidib -0.001 | Tubastatin A 0.014 | [1] 0.007 | defactinib 0.006 | [2] -0.031 | encorafenib -0.002 | [3] -0.057 | alisertib -0.007 | [4] 0.012 | gefitinib -0.009 | lapatinib -0.013 | pictilisib 0.015 | crizotinib -0.034 | [5] -0.055 | duvelisib 0.023 | gandotinib 0.011 | tozasertib 0.005 | doramapimod 0.081 | bafetinib 0.007 | [6] -0.007
